From paper PMC3222648, “Inotropic Action of the Puberty Hormone Kisspeptin in Rat, Mouse and Human: Cardiovascular Distribution and Characteristics of the Kisspeptin Receptor” (PLoS ONE, 2011)

How the values were obtained:
[1] = cited from earlier work
[2] = Radioimmunoassay of kisspeptin-LI in human heart

kisspeptin: Kisspeptin, or KP-54; also used generically for the endogenous peptides and kisspeptin-like immunoreactivity (GTSLSPPPESSGSPQQPGLSAPHSRQIPAPQGAVLVQREKDLPNYNWNSFGLRF; Metastin; UniProt Q15726 68-121, looked up)
increase in plasma concentration in pregnancy ([1]; above normal levels, pregnancy, ref [48]): 10000 fold | circulating level ([1]; human, ref [31]): 0.83 ± 0.19 pM | kisspeptin-LI level in myocardium ([2]; left ventricle, control vs DCM vs IHD (P>0.05)): no significant difference | kisspeptin-LI level in myocardium ([2]; right atria, patients with dilated cardiomyopathy vs control (n = 4)): not different | kisspeptin-LI level in myocardium ([2]; right atria, patients with ischaemic heart disease vs control (P<0.05, ANOVA)): significant reduction
